In publication PMC7670567:
No constants are given. Whether binding was seen depends on the method and setting. Binding seen in cells or lysates may run through a third protein. Here binding means that the protein was enriched with, or labelled near, the bait; the list need not be complete.

Protein sequences, listed by entry. Tags and fused reporters are not part of them.
UniProt O14949: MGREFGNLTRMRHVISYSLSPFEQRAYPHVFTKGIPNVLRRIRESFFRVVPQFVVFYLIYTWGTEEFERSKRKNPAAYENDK
UniProt O14965: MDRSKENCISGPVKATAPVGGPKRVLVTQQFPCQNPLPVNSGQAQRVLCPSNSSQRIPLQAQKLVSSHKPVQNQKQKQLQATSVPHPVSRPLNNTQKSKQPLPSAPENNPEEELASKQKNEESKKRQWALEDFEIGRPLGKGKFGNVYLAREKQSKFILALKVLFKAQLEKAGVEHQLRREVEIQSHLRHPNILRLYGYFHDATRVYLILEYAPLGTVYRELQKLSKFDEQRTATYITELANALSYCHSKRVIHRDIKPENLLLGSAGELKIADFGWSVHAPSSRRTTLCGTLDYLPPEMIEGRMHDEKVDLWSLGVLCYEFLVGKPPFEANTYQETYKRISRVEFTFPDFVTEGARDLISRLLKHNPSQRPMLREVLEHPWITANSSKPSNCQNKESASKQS
UniProt Q9UH03: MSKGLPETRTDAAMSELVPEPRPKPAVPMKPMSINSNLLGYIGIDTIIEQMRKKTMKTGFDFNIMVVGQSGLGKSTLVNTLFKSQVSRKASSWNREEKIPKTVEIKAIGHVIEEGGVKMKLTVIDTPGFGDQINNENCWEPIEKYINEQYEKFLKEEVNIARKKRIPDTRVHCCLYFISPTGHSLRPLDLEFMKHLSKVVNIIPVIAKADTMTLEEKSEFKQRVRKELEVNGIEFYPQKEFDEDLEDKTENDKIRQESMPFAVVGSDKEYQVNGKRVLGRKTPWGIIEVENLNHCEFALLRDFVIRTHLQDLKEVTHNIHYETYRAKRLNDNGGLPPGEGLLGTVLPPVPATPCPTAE

What was measured:
[1] = target: HCLS1-associated protein X-1 (HAX1), endogenous (human (endogenous in HeLa and MCF7)) (UniProt O00165); experiment: affinity purification with mass spectrometry; HeLa lysate (150 mM NaCl, 20 mM Tris/HCl pH 7.4, 0.75% Nonidet-P40); endogenous HAX1 precipitated with anti-HAX1 rabbit polyclonal antibody on Dynabeads protein A, overnight, 4°C; controls: IgG and HAX1 KO cells; LC-MS/MS
[2] = target: HCLS1-associated protein X-1 (HAX1), endogenous (human (endogenous in HeLa and MCF7)) (UniProt O00165); experiment: affinity purification with mass spectrometry; MCF7 lysate (150 mM NaCl, 20 mM Tris/HCl pH 7.4, 0.75% Nonidet-P40); endogenous HAX1 precipitated with anti-HAX1 rabbit polyclonal antibody on Dynabeads protein A, overnight, 4°C; control: IgG; LC-MS/MS

binding [1]	binding [2]	Substance
binds	–	UQCRQ, endogenous (from UniProt O14949 1-82)
–	binds	Aurora A kinase (AURKA), endogenous (from UniProt O14965 1-403)
–	binds	SEPT3, endogenous (from UniProt Q9UH03 1-358)
